Results are given in words; binding and its absence hold for the method and conditions named. Binding seen in cells or lysates may run through a third protein. Some binding calls cover weakened binding; strength is not graded here.
Biological target: T1, NAT10 acetyltransferase (human (endogenous in iPSC-derived neurons)) (UniProt Q9H0A0)
T1 sequence: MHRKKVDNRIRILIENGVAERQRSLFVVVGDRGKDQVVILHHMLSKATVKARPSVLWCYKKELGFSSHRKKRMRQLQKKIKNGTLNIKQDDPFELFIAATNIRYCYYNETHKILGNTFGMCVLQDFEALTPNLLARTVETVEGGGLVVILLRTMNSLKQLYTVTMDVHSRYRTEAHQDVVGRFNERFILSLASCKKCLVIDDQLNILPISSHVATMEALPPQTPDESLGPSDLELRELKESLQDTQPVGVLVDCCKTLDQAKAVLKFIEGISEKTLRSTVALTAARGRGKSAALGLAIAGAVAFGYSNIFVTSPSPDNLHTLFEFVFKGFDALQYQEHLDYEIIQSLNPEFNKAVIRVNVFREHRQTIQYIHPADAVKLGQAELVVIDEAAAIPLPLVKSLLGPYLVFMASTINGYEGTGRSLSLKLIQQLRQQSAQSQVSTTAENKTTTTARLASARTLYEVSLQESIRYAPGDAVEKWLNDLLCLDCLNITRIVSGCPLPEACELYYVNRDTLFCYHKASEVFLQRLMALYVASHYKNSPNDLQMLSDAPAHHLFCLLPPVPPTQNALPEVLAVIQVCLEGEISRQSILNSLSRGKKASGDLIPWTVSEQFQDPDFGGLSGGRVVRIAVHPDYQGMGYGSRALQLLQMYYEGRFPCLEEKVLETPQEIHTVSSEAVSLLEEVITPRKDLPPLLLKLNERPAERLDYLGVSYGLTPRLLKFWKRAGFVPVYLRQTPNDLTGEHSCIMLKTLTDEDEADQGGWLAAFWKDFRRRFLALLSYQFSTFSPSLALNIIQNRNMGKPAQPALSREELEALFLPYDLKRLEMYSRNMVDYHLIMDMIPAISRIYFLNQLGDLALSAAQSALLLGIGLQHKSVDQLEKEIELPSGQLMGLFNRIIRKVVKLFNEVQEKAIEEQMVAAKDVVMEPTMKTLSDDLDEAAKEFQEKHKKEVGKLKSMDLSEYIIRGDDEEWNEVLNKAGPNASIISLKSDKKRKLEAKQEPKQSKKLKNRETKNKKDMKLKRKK
Experiment: co-IP; 1 mg of total protein (RIPA extract) of FTD-MAPT or control neurons immunoprecipitated with polyclonal anti-NAT10 antibody or normal rabbit IgG; western blot for KIF2A and ARHGEF2

Protein sequences, listed by entry. Tags and fused reporters are not part of them.
UniProt O00139: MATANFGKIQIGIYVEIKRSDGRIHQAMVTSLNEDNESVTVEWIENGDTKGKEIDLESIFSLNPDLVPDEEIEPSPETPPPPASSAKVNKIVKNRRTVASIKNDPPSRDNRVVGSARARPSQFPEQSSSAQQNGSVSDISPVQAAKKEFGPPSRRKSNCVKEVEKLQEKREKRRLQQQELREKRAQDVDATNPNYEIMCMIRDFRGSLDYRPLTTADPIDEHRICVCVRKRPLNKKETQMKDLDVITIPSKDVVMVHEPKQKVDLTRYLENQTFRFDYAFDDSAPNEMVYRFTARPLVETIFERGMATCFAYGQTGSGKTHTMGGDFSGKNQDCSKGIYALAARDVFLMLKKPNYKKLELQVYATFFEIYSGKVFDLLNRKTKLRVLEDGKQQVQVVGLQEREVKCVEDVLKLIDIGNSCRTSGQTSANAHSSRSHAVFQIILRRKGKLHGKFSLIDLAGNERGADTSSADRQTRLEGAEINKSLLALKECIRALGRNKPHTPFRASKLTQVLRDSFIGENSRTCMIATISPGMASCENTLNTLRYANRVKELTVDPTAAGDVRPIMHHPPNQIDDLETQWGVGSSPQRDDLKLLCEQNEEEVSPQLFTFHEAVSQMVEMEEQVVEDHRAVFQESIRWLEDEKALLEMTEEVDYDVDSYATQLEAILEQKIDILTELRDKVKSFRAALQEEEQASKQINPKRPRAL

binding: binds
Substance: kinesin KIF2A (from UniProt O00139 1-706)

Reference: publication PMC13426208
